Publication PMC4764565
Results are given in words; binding and its absence hold for the method and conditions named. Binding seen in cells or lysates may run through a third protein. Some entries that bind do so weakly or less than the wild type. For part of these data: Where a sequence is shown, tags or fusion partners need not be part of it.

By UniProt entry, the sequences of proteins in these tests, tags left out. Residues count along the entry.
UniProt P54763, residues 19-986: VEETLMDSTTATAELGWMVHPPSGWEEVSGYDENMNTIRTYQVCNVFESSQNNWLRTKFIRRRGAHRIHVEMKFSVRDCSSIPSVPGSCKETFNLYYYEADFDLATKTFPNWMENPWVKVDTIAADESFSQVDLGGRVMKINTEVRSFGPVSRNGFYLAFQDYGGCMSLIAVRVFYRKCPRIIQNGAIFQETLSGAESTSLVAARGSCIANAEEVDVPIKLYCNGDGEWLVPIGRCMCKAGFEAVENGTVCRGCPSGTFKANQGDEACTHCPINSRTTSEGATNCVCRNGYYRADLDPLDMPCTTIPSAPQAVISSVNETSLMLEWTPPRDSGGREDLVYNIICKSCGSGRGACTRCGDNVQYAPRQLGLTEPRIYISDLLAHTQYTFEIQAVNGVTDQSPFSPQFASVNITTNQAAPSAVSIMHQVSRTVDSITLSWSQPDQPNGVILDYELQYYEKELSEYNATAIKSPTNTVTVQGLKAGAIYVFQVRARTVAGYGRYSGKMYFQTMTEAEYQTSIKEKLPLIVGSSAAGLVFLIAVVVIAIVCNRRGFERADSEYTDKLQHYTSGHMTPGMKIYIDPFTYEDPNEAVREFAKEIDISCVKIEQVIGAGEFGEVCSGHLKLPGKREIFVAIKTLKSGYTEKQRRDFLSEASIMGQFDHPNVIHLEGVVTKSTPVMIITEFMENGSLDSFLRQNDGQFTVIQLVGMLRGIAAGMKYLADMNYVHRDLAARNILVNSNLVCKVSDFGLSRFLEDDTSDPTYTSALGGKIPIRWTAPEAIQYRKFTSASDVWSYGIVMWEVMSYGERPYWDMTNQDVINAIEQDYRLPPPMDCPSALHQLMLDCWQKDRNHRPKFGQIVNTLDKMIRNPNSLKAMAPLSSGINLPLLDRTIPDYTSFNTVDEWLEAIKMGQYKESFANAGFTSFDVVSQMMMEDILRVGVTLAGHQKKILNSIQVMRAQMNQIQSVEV
UniProt O08747, residues 41-931: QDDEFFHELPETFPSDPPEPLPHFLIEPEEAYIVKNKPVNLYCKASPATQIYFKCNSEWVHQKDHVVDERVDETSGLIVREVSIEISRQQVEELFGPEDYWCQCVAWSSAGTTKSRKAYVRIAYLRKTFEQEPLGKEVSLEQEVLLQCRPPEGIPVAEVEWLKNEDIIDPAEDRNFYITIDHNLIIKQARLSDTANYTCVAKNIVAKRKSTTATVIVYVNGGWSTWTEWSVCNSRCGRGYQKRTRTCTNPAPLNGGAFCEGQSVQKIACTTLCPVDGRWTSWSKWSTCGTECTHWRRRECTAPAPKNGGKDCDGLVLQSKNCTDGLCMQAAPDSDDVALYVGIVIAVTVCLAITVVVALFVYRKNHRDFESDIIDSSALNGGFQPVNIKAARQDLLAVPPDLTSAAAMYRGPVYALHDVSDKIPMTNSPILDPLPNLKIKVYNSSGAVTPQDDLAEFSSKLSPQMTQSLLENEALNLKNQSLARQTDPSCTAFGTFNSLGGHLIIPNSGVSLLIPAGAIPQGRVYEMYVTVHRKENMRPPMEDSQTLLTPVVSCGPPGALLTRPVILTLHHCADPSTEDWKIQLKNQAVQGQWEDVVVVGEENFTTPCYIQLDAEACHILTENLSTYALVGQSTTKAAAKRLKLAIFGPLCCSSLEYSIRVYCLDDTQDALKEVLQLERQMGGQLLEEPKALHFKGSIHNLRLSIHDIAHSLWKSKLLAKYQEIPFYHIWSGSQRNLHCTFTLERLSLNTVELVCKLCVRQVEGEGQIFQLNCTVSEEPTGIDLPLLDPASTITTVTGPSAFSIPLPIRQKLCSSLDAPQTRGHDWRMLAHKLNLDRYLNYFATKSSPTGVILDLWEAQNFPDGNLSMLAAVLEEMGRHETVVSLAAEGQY

Columns and labels:
EphB2-GFP (mouse) = EphB2-GFP (mouse) (UniProt P54763); test: co-IP; anti-GFP antibody on ProteinA/G agarose, overnight, pre-cleared lysates of co-transfected HEK293 cells (10mM Tris-Cl pH 8, 137 mM NaCl, 2mM EDTA, 1% NP40); blot for Myc; in the ligand experiments cells were starved 2 hr in OPTIMEM and incubated 15 min at 37°C with pre-clustered Fc, eB2-Fc or eA3-Fc (1.5 μg/ml), Netrin-1 (250 ng/ml) or eB2-Fc+Netrin-1 before lysis
EphA3-GFP = biological target: T1, EphA3-GFP (UniProt P29320); test: as above
T1 sequence: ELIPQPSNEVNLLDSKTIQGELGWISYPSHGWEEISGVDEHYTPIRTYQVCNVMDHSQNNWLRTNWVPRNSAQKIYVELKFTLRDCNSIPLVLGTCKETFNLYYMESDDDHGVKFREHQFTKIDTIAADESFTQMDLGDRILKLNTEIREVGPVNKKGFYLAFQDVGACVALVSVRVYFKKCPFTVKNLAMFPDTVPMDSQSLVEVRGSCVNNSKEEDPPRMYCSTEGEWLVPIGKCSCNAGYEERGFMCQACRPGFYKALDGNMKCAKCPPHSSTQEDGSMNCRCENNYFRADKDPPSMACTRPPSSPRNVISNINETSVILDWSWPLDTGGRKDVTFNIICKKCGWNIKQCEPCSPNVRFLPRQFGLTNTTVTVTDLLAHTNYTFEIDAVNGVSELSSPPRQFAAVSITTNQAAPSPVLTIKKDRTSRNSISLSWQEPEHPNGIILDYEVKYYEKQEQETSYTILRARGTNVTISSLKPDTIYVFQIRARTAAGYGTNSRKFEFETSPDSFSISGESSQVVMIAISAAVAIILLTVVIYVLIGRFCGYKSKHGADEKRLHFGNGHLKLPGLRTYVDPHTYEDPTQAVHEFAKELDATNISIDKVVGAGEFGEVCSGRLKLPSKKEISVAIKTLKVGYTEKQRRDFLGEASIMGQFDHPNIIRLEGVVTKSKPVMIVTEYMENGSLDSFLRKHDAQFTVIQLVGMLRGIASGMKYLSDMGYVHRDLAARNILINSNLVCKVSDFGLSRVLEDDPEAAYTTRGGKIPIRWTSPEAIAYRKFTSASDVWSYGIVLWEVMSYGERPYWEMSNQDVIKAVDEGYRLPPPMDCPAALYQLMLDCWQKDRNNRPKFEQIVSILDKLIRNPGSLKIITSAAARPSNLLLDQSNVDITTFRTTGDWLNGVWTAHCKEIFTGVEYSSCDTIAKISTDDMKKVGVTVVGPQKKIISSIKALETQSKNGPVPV

Unc5c-Myc (mouse) = Unc5c-Myc (mouse) (UniProt O08747); test: co-IP; reciprocal: Myc antibody on ProteinA/G agarose, lysates of Unc5c-Myc- and Ephb2-GFP-transfected HEK293 cells; EphB2-GFP detected

## Unc5c-Myc (from UniProt O08747 41-931) (receptor)
EphB2-GFP (mouse)
  binding: binds
EphA3-GFP
  binding: no binding

## EphB2-GFP (from UniProt P54763 19-986) (receptor)
Unc5c-Myc (mouse)
  binding: binds
